{"source": "PubChem BioAssay AID686938 (Drosophila RNAi Screening Center, 2013)", "aim": "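Fly genes required for calcium entry once internal stores are emptied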 (primary screen)", "system": "Drosophila S2R+ cells", "knock-down reagent": "long dsRNA against Drosophila genes, about 0.25 µg dsRNA per well, roughly 10,000 cells", "timing": "5 days of knock-down before the calcium assay", "conditions": "thapsigargin (SERCA pump blocker) to empty calcium stores; entry signal taken 4 min after adding it", "read-out": "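Duplicate raw fluo-4 intensities per well from a plate reader, at rest and four minutes after thapsigargin emptied calcium stores; entry-to-rest ratio filled for only some wells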", "scale": "calcium entry signal: higher = stronger calcium signal after store depletion; resting calcium signal: higher = higher resting calcium signal", "units": "calcium entry signal in fluorescence units; resting calcium signal in fluorescence units", "call rule": "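Called when the plate z-score of the entry-to-rest ratio, mean of duplicates, falls below −3; wells with low overall dye signal (Fmax z below −2) or more than five off-targets excluded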", "meaning of the calls": "active = strongly reduced calcium entry; inactive = no strong reduction", "note": "The screen tested about 23,000 reagents; shown is a random part of those that have a named target and a result. Over the whole deposit, 75 (0.33%) got an active call. 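Raw plate signals without normalisation; calls rest on plate z-scores that were not deposited; ratio present for only 364 wells.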 Unmarked entries are inactive. A plus sign joins genes that one reagent is predicted to hit. Reagent sequences are not shown. Not given: the dose of the treatment."}
{"predicted target": "ear (ENL/AF9-related)", "amplicon": "DRSC15675", "calcium entry signal, replicate 1": 3.84e7, "calcium entry signal, replicate 2": 4.39e7, "resting calcium signal, replicate 1": 1.58e7, "resting calcium signal, replicate 2": 1.86e7}
{"predicted target": "CG5116", "amplicon": "DRSC15720", "calcium entry signal, replicate 1": 3.00e7, "calcium entry signal, replicate 2": 2.49e7, "resting calcium signal, replicate 1": 1.33e7, "resting calcium signal, replicate 2": 1.23e7}
{"predicted target": "CG7194", "amplicon": "DRSC10784", "calcium entry signal, replicate 1": 2.11e7, "calcium entry signal, replicate 2": 3.17e7, "resting calcium signal, replicate 1": 1.06e7, "resting calcium signal, replicate 2": 1.40e7}
{"predicted target": "CG10104", "amplicon": "DRSC05964", "calcium entry signal, replicate 1": 2.18e7, "calcium entry signal, replicate 2": 3.44e7, "resting calcium signal, replicate 1": 1.14e7, "resting calcium signal, replicate 2": 1.39e7}
{"predicted target": "Cndp2 (Cytosolic non-specific dipeptidase 2)", "amplicon": "DRSC04873", "calcium entry signal, replicate 1": 4.00e7, "calcium entry signal, replicate 2": 4.63e7, "resting calcium signal, replicate 1": 2.09e7, "resting calcium signal, replicate 2": 2.06e7}
{"predicted target": "bol (boule)", "amplicon": "DRSC08964", "calcium entry signal, replicate 1": 4.94e7, "calcium entry signal, replicate 2": 6.18e7, "resting calcium signal, replicate 1": 2.45e7, "resting calcium signal, replicate 2": 2.65e7}
{"predicted target": "bol (boule)", "amplicon": "DRSC10444", "calcium entry signal, replicate 1": 2.92e7, "calcium entry signal, replicate 2": 4.33e7, "resting calcium signal, replicate 1": 1.55e7, "resting calcium signal, replicate 2": 1.61e7}
{"predicted target": "bol (boule)", "amplicon": "DRSC11329", "calcium entry signal, replicate 1": 3.17e7, "calcium entry signal, replicate 2": 3.04e7, "resting calcium signal, replicate 1": 1.59e7, "resting calcium signal, replicate 2": 1.39e7}
{"predicted target": "betaCOP (Coat Protein (coatomer) beta)", "amplicon": "DRSC20312", "calcium entry signal, replicate 1": 2.17e7, "calcium entry signal, replicate 2": 2.40e7, "resting calcium signal, replicate 1": 1.59e7, "resting calcium signal, replicate 2": 1.38e7}
{"predicted target": "TBC1d7 + mRpS24", "amplicon": "DRSC14611", "calcium entry signal, replicate 1": 5.34e7, "calcium entry signal, replicate 2": 5.42e7, "resting calcium signal, replicate 1": 2.36e7, "resting calcium signal, replicate 2": 2.19e7}
{"predicted target": "Nplp1 (Neuropeptide-like precursor 1)", "amplicon": "DRSC04370", "calcium entry signal, replicate 1": 3.64e7, "resting calcium signal, replicate 1": 1.72e7}
{"predicted target": "Oamb (Octopamine receptor in mushroom bodies)", "amplicon": "DRSC13433", "calcium entry signal, replicate 1": 7.44e7, "calcium entry signal, replicate 2": 3.13e7, "resting calcium signal, replicate 1": 3.11e7, "resting calcium signal, replicate 2": 1.48e7}
{"predicted target": "Oamb (Octopamine receptor in mushroom bodies)", "amplicon": "DRSC15120", "calcium entry signal, replicate 1": 4.08e7, "calcium entry signal, replicate 2": 4.31e7, "resting calcium signal, replicate 1": 7.04e7, "resting calcium signal, replicate 2": 2.18e7}
{"predicted target": "Oamb (Octopamine receptor in mushroom bodies)", "amplicon": "DRSC16763", "calcium entry signal, replicate 1": 4.47e7, "calcium entry signal, replicate 2": 5.38e7, "resting calcium signal, replicate 1": 6.05e7, "resting calcium signal, replicate 2": 2.47e7}
{"predicted target": "CG14443", "amplicon": "DRSC17936", "calcium entry signal, replicate 1": 2.79e7, "calcium entry signal, replicate 2": 4.33e7, "resting calcium signal, replicate 1": 1.33e7, "resting calcium signal, replicate 2": 1.92e7}
{"predicted target": "Sec13 (Secretory 13)", "amplicon": "DRSC14144", "calcium entry signal, replicate 1": 4.49e7, "calcium entry signal, replicate 2": 3.60e7, "resting calcium signal, replicate 1": 2.24e7, "resting calcium signal, replicate 2": 1.65e7}

A few values from above.
Entry of Oamb (Octopamine receptor in mushroom bodies) [DRSC13433] under “calcium entry signal, replicate 1”: 7.44e7
Result for CG5116 [DRSC15720] under “resting calcium signal, replicate 2”: 1.23e7

Further results follow.
{"predicted target": "CG14618", "amplicon": "DRSC20631", "calcium entry signal, replicate 1": 4.43e7, "calcium entry signal, replicate 2": 4.76e7, "resting calcium signal, replicate 1": 2.02e7, "resting calcium signal, replicate 2": 1.95e7}
{"predicted target": "CG31279", "amplicon": "DRSC13158", "calcium entry signal, replicate 1": 2.51e7, "calcium entry signal, replicate 2": 3.29e7, "resting calcium signal, replicate 1": 1.35e7, "resting calcium signal, replicate 2": 1.67e7}
{"predicted target": "CG12128 + CG1407", "amplicon": "DRSC06446", "calcium entry signal, replicate 1": 4.33e7, "calcium entry signal, replicate 2": 3.33e7, "resting calcium signal, replicate 1": 1.83e7, "resting calcium signal, replicate 2": 1.64e7}
{"predicted target": "CG13862", "amplicon": "DRSC14712", "calcium entry signal, replicate 1": 3.72e7, "calcium entry signal, replicate 2": 4.29e7, "resting calcium signal, replicate 1": 5.30e7, "resting calcium signal, replicate 2": 2.01e7}
{"predicted target": "Acox57D-p (acyl-Coenzyme A oxidase at 57D proximal)", "amplicon": "DRSC04560", "calcium entry signal, replicate 1": 4.08e7, "resting calcium signal, replicate 1": 2.03e7}
{"predicted target": "dl (dorsal)", "amplicon": "DRSC03520", "calcium entry signal, replicate 1": 4.34e7, "resting calcium signal, replicate 1": 2.47e7}
{"predicted target": "dl (dorsal)", "amplicon": "DRSC03521", "calcium entry signal, replicate 1": 3.39e7, "calcium entry signal, replicate 2": 3.18e7, "resting calcium signal, replicate 1": 1.85e7, "resting calcium signal, replicate 2": 1.40e7}
{"predicted target": "Hs6st (Heparan sulfate 6-O-sulfotransferase)", "amplicon": "DRSC14348", "calcium entry signal, replicate 1": 2.43e7, "calcium entry signal, replicate 2": 3.12e7, "resting calcium signal, replicate 1": 3.38e7, "resting calcium signal, replicate 2": 1.32e7}
{"predicted target": "Hs6st (Heparan sulfate 6-O-sulfotransferase)", "amplicon": "DRSC15182", "calcium entry signal, replicate 1": 3.99e7, "calcium entry signal, replicate 2": 4.39e7, "resting calcium signal, replicate 1": 4.53e7, "resting calcium signal, replicate 2": 1.87e7}
{"predicted target": "Hs6st (Heparan sulfate 6-O-sulfotransferase)", "amplicon": "DRSC15581", "calcium entry signal, replicate 1": 3.37e7, "calcium entry signal, replicate 2": 4.22e7, "resting calcium signal, replicate 1": 4.57e7, "resting calcium signal, replicate 2": 2.16e7}
{"predicted target": "Hs6st (Heparan sulfate 6-O-sulfotransferase)", "amplicon": "DRSC21732", "calcium entry signal, replicate 1": 2.86e7, "calcium entry signal, replicate 2": 3.13e7, "resting calcium signal, replicate 1": 1.53e7, "resting calcium signal, replicate 2": 1.53e7}
